# Source: the supplement of paper PMC8728848
# The other results are listed elsewhere or left out.
# B1: EULS2 M1 (Oryza sativa) (protein)
# chain: MVYCRANPNYAMTARNGAVVLAPANPKDEYQHWIKDMRWSTSIKDEEGYPAFALVNKATGQAIKHSLGQSHPVRLVPYNPEVMDESVLWTESRDVGNGFRCIRMVNNIYLNFDAFHGDKYHGGVRDGTDIVLWKLCEGDNQRWKIQPYYILEQKLISEEDLNSAVDHHHHHH
# What was measured:
# Assay in all cases: glycan array binding signal (z-score within array); higher = stronger binding
# Settings in all cases: glycan notation: IUPAC condensed, linker removed
# [1] = target: Gal(b1-3)GlcNAc(b1-2)Man(a1-3)[Gal(b1-3)GlcNAc(b1-2)Man(a1-6)]Man(b1-4)GlcNAc(b1-4)[Fuc(a1-6)]GlcNAc
# Outline: (§1)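 Glycan array binding is given as a within-array Z-score, which can be read as non-binding when negative. The arrays, 3228 of them, came from the Consortium for Functional Glycomics database and were retained only where the protein sequence was available. Z-scores were averaged across arrays of the same protein sequence at different concentrations or buffers and across linkers.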
# [2] = target: Gal(b1-3)GlcNAc(b1-2)Man(a1-3)[GlcNAc(b1-4)][Gal(b1-3)GlcNAc(b1-2)Man(a1-6)]Man(b1-4)GlcNAc(b1-4)GlcNAc
# Outline: as §1
# [3] = target: Gal(b1-3)GlcNAc(b1-2)[Gal(b1-3)GlcNAc(b1-6)]Man(a1-6)[Gal(b1-3)GlcNAc(b1-2)Man(a1-3)]Man(b1-4)GlcNAc(b1-4)GlcNAc
# Outline: as §1
# [4] = target: Gal(b1-3)GlcNAc(b1-3)Gal(b1-3)GlcNAc
# Outline: as §1
# [5] = target: Gal(b1-3)GlcNAc(b1-3)Gal(b1-4)Glc
# Outline: as §1
# [6] = target: Gal(b1-3)GlcNAc(b1-3)Gal(b1-4)GlcNAc
# Outline: as §1
# [7] = target: Gal(b1-3)GlcNAc(b1-3)Gal(b1-4)GlcNAc(b1-2)Man(a1-3)[Gal(b1-3)GlcNAc(b1-3)Gal(b1-4)GlcNAc(b1-2)Man(a1-6)]Man(b1-4)GlcNAc(b1-4)GlcNAc
# Outline: as §1
# [8] = target: Gal(b1-3)GlcNAc(b1-3)Gal(b1-4)GlcNAc(b1-2)[Gal(b1-3)GlcNAc(b1-3)Gal(b1-4)GlcNAc(b1-6)]Man(a1-6)[Gal(b1-3)GlcNAc(b1-3)Gal(b1-4)GlcNAc(b1-2)Man(a1-3)]Man(b1-4)GlcNAc(b1-4)[Fuc(a1-6)]GlcNAc
# Outline: as §1
# [9] = target: Gal(b1-3)GlcNAc(b1-3)Gal(b1-4)GlcNAc(b1-3)Gal(b1-4)GlcNAc(b1-2)[Gal(b1-3)GlcNAc(b1-3)Gal(b1-4)GlcNAc(b1-3)Gal(b1-4)GlcNAc(b1-6)]Man(a1-6)[Gal(b1-3)GlcNAc(b1-3)Gal(b1-4)GlcNAc(b1-3)Gal(b1-4)GlcNAc(b1-2)Man(a1-3)]Man(b1-4)GlcNAc(b1-4)[Fuc(a1-6)]GlcNAc
# Outline: as §1
# [10] = target: Gal(b1-3)GlcNAc(b1-3)Gal(b1-4)GlcNAc(b1-6)[Gal(b1-3)GlcNAc(b1-3)]Gal(b1-4)Glc
# Outline: as §1
# [11] = target: Gal(b1-3)GlcNAc(b1-3)Gal(b1-4)[Fuc(a1-3)]GlcNAc
# Outline: as §1
# [12] = target: Gal(b1-3)GlcNAc(b1-3)Gal(b1-4)[Fuc(a1-3)]GlcNAc(b1-6)[Gal(b1-3)GlcNAc(b1-3)]Gal(b1-4)Glc
# Outline: as §1
# [13] = target: Gal(b1-3)GlcNAc(b1-3)GalNAc
# Outline: as §1
# [14] = target: Gal(b1-3)GlcNAc(b1-6)Gal(b1-4)GlcNAc
# Outline: as §1
# [15] = target: Gal(b1-3)GlcNAc(b1-6)GalNAc
# Outline: as §1
# [16] = target: Gal(b1-3)GlcNAc(b1-6)[Gal(b1-3)]GalNAc
# Outline: as §1
# Gal(b1-3)GlcNAc6S = target: Gal(b1-3)GlcNAc6S
# Outline: as §1
# [17] = target: Gal(b1-3)[Fuc(a1-4)]GlcNAc
# Outline: as §1
# [18] = target: Gal(b1-3)[Fuc(a1-4)]GlcNAc(b1-2)Man
# Outline: as §1
# [19] = target: Gal(b1-3)[Fuc(a1-4)]GlcNAc(b1-2)Man(a1-3)[Gal(b1-3)[Fuc(a1-4)]GlcNAc(b1-2)Man(a1-6)]Man(b1-4)GlcNAc(b1-4)[Fuc(a1-6)]GlcNAc
# Outline: as §1
# [20] = target: Gal(b1-3)[Fuc(a1-4)]GlcNAc(b1-3)Gal(b1-3)[Fuc(a1-4)]GlcNAc
# Outline: as §1
# [21] = target: Gal(b1-3)[Fuc(a1-4)]GlcNAc(b1-3)Gal(b1-4)[Fuc(a1-3)]GlcNAc
# Outline: as §1
# [22] = target: Gal(b1-3)[Fuc(a1-4)]GlcNAc(b1-6)GalNAc
# Outline: as §1
# [23] = target: Gal(b1-3)[GlcNAc(b1-6)]GalNAc
# Outline: as §1
# [24] = target: Gal(b1-3)[Neu5Ac(a2-6)]GalNAc
# Outline: as §1
# [25] = target: Gal(b1-3)[Neu5Ac(a2-6)]GlcNAc(b1-4)Gal(b1-4)Glc
# Outline: as §1
# [26] = target: Gal(b1-3)[Neu5Ac(b2-6)]GalNAc
# Outline: as §1
# Gal(b1-4)Gal = target: Gal(b1-4)Gal
# Outline: as §1
# [27] = target: Gal(b1-4)GalNAc(a1-3)[Fuc(a1-2)]Gal(b1-4)GlcNAc
# Outline: as §1
# [28] = target: Gal(b1-4)GalNAc(b1-3)[Fuc(a1-2)]Gal(b1-4)GlcNAc
# Outline: as §1
# Gal(b1-4)Glc = target: Gal(b1-4)Glc
# Outline: as §1
# Gal(b1-4)Glc6S = target: Gal(b1-4)Glc6S
# Outline: as §1
# Gal(b1-4)GlcNAc = target: Gal(b1-4)GlcNAc
# Outline: as §1
# [29] = target: Gal(b1-4)GlcNAc(a1-6)Gal(b1-4)GlcNAc
# Outline: as §1
# Gal(b1-4)GlcNAc(b1-2)Man = target: Gal(b1-4)GlcNAc(b1-2)Man
# Outline: as §1
# [30] = target: Gal(b1-4)GlcNAc(b1-2)Man(a1-3)Man(b1-4)GlcNAc(b1-4)GlcNAc
# Outline: as §1
# [31] = target: Gal(b1-4)GlcNAc(b1-2)Man(a1-3)[Gal(b1-4)GlcNAc(b1-2)Man(a1-6)]Man(b1-4)GlcNAc(b1-4)GlcNAc
# Outline: as §1
# [32] = target: Gal(b1-4)GlcNAc(b1-2)Man(a1-3)[Gal(b1-4)GlcNAc(b1-2)Man(a1-6)]Man(b1-4)GlcNAc(b1-4)[Fuc(a1-6)]GlcNAc
# Outline: as §1
# [33] = target: Gal(b1-4)GlcNAc(b1-2)Man(a1-3)[Gal(b1-4)GlcNAc(b1-2)Man(a1-6)][Gal(b1-4)GlcNAc(b1-4)]Man(b1-4)GlcNAc(b1-4)[Fuc(a1-6)]GlcNAc
# Outline: as §1
# [34] = target: Gal(b1-4)GlcNAc(b1-2)Man(a1-3)[Gal(b1-4)GlcNAc(b1-2)Man(a1-6)][GlcNAc(b1-4)]Man(b1-4)GlcNAc(b1-4)[Fuc(a1-6)]GlcNAc
# Outline: as §1
# [35] = target: Gal(b1-4)GlcNAc(b1-2)Man(a1-3)[GlcNAc(b1-2)Man(a1-6)]Man(b1-4)GlcNAc(b1-4)GlcNAc
# Outline: as §1
# [36] = target: Gal(b1-4)GlcNAc(b1-2)Man(a1-3)[GlcNAc(b1-4)][Gal(b1-4)GlcNAc(b1-2)Man(a1-6)]Man(b1-4)GlcNAc(b1-4)GlcNAc
# Outline: as §1
# [37] = target: Gal(b1-4)GlcNAc(b1-2)Man(a1-3)[Man(a1-6)]Man(b1-4)GlcNAc(b1-4)GlcNAc
# Outline: as §1
# [38] = target: Gal(b1-4)GlcNAc(b1-2)Man(a1-6)Man(b1-4)GlcNAc(b1-4)GlcNAc
# Outline: as §1
# [39] = target: Gal(b1-4)GlcNAc(b1-2)Man(a1-6)[GlcNAc(b1-2)Man(a1-3)]Man(b1-4)GlcNAc(b1-4)GlcNAc
# Outline: as §1
binder,measurement,setting,value
B1,glycan array binding signal (z-score),[1],-0.211
same,glycan array binding signal (z-score),[2],1.35
same,glycan array binding signal (z-score),[3],0.089
same,glycan array binding signal (z-score),[4],-0.334
same,glycan array binding signal (z-score),[5],0.016
same,glycan array binding signal (z-score),[6],0.123
same,glycan array binding signal (z-score),[7],0.29
same,glycan array binding signal (z-score),[8],-0.06
same,glycan array binding signal (z-score),[9],0.535
same,glycan array binding signal (z-score),[10],-0.454
same,glycan array binding signal (z-score),[11],0.122
same,glycan array binding signal (z-score),[12],-1
same,glycan array binding signal (z-score),[13],-0.422
same,glycan array binding signal (z-score),[14],-0.343
same,glycan array binding signal (z-score),[15],0.284
same,glycan array binding signal (z-score),[16],0.808
same,glycan array binding signal (z-score),Gal(b1-3)GlcNAc6S,0.324
same,glycan array binding signal (z-score),[17],-0.54
same,glycan array binding signal (z-score),[18],1.75
same,glycan array binding signal (z-score),[19],1.19
same,glycan array binding signal (z-score),[20],3.42
same,glycan array binding signal (z-score),[21],-1.44
same,glycan array binding signal (z-score),[22],0.91
same,glycan array binding signal (z-score),[23],-0.527
same,glycan array binding signal (z-score),[24],1.39
same,glycan array binding signal (z-score),[25],-0.492
same,glycan array binding signal (z-score),[26],2.3
same,glycan array binding signal (z-score),Gal(b1-4)Gal,0.801
same,glycan array binding signal (z-score),[27],0.104
same,glycan array binding signal (z-score),[28],0.097
same,glycan array binding signal (z-score),Gal(b1-4)Glc,-0.471
same,glycan array binding signal (z-score),Gal(b1-4)Glc6S,-1.02
same,glycan array binding signal (z-score),Gal(b1-4)GlcNAc,-0.618
same,glycan array binding signal (z-score),[29],-0.065
same,glycan array binding signal (z-score),Gal(b1-4)GlcNAc(b1-2)Man,-0.009
same,glycan array binding signal (z-score),[30],-0.001
same,glycan array binding signal (z-score),[31],-0.312
same,glycan array binding signal (z-score),[32],-0.201
same,glycan array binding signal (z-score),[33],0.067
same,glycan array binding signal (z-score),[34],-0.719
same,glycan array binding signal (z-score),[35],0.521
same,glycan array binding signal (z-score),[36],1.31
same,glycan array binding signal (z-score),[37],0
same,glycan array binding signal (z-score),[38],-0.416
same,glycan array binding signal (z-score),[39],0.158

# Pulled one by one from above:
binder,measurement,setting,value
B1,glycan array binding signal (z-score),[1],-0.211
same,glycan array binding signal (z-score),[37],0
same,glycan array binding signal (z-score),[3],0.089
same,glycan array binding signal (z-score),[8],-0.06
